Test results published in patent publication US20140121213A1, “VOLTAGE-GATED SODIUM CHANNEL BLOCKERS” (priority 2011, published 2014).
Some entries share one result that the patent states for a list of compounds. For at least one compound, name, drawing or mass did not settle the structure.

The chains behind the UniProt entries cited, without tags or fusion partners.
UniProt Q15858, whole entry: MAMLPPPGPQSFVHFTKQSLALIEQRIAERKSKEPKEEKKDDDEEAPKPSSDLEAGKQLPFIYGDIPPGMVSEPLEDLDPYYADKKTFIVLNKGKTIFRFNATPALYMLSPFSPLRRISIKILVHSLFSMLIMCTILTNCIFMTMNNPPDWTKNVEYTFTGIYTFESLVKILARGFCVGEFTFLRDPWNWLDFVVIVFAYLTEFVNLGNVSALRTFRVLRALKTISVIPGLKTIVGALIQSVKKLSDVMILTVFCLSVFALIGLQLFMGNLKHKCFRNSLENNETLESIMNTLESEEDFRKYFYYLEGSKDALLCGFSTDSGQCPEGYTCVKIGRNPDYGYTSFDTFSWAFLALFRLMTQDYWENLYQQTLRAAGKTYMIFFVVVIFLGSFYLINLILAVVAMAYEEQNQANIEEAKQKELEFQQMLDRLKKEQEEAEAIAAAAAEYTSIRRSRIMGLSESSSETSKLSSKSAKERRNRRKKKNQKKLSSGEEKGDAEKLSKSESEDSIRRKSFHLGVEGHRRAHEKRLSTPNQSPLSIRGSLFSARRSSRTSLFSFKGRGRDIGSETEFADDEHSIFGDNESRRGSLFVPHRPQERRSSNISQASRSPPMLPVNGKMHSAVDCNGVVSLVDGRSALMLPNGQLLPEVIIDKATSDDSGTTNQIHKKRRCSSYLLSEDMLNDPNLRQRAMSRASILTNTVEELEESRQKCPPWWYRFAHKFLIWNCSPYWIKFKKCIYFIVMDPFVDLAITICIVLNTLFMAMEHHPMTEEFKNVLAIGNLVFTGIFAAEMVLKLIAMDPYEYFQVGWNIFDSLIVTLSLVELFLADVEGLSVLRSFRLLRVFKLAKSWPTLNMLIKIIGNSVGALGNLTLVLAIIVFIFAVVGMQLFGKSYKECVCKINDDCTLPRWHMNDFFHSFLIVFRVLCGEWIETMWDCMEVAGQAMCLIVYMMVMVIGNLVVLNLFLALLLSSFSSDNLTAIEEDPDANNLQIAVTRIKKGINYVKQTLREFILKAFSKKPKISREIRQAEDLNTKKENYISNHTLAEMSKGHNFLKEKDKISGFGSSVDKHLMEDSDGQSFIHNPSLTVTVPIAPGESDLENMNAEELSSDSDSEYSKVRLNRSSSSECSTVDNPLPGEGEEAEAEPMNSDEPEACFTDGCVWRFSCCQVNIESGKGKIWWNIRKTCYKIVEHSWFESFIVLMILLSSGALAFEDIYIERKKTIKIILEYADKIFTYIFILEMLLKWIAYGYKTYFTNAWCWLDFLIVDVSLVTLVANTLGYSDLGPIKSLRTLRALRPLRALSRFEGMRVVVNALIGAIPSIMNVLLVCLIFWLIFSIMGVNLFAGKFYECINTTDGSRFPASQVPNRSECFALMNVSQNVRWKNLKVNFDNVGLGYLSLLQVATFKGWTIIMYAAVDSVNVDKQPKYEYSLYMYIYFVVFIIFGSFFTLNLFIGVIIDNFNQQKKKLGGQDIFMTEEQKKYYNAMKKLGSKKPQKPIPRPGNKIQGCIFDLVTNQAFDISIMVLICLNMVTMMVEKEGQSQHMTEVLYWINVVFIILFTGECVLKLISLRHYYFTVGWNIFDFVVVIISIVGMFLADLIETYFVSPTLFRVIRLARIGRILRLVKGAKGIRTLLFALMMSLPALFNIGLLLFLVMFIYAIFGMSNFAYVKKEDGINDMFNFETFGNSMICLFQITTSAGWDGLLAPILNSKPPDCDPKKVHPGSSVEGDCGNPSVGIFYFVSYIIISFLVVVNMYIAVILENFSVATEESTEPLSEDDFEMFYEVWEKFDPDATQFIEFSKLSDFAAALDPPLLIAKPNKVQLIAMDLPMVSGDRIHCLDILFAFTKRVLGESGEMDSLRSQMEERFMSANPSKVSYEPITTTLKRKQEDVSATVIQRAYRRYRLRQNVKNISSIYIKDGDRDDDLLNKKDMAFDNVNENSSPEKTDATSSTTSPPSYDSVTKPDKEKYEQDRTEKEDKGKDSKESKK
UniProt Q9NY46, whole entry: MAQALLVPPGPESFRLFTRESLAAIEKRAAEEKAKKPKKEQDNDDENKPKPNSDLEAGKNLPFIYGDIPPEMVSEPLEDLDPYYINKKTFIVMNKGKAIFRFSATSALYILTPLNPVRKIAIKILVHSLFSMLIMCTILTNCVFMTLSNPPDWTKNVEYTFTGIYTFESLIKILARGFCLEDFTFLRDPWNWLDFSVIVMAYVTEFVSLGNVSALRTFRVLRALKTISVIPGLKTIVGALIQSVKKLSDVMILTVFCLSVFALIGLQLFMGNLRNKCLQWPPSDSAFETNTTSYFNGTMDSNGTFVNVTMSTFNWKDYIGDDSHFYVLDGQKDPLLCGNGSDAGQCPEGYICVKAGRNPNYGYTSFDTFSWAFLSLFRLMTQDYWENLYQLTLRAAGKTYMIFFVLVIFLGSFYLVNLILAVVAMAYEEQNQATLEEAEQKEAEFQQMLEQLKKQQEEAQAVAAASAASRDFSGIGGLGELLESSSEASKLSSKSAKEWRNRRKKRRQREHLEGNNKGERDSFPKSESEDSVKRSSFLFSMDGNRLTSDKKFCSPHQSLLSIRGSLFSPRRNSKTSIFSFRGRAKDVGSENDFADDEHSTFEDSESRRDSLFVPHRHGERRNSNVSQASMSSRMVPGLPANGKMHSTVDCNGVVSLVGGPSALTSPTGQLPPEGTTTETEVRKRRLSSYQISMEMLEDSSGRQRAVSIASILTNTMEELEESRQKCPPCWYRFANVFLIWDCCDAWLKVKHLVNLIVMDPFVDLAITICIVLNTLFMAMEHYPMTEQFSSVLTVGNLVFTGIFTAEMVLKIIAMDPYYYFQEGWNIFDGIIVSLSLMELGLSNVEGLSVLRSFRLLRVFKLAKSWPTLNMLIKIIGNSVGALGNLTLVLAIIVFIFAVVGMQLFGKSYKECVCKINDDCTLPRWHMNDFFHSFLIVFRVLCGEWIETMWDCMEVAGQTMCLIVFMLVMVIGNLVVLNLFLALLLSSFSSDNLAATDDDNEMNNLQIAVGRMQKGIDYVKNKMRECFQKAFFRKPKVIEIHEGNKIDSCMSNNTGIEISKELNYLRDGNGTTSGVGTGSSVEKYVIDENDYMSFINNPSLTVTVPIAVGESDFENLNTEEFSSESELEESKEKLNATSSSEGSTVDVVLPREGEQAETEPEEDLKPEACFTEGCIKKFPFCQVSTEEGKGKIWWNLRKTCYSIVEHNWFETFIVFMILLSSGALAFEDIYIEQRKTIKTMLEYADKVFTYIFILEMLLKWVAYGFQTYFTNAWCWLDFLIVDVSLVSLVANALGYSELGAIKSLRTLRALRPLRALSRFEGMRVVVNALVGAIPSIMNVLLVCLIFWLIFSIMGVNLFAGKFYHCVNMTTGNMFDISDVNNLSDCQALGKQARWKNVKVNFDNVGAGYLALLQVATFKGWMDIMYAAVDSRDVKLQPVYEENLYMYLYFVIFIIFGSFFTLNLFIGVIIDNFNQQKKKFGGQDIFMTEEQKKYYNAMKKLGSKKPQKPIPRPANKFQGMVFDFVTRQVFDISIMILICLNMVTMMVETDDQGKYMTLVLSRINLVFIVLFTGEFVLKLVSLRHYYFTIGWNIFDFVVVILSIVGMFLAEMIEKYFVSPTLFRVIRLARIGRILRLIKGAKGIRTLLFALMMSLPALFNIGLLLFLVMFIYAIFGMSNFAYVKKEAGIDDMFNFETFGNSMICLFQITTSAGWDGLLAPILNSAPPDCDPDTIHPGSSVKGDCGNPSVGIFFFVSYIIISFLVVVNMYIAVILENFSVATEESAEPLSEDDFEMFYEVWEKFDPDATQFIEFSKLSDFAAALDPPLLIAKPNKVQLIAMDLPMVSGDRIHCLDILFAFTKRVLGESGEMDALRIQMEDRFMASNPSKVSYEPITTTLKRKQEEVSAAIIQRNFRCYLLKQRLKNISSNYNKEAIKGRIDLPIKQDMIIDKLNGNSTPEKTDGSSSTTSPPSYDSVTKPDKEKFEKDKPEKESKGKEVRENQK

Experiments:
NaV 1.7 = NaV 1.7 (Homo sapiens, UniProt Q15858); experiment: Use-dependent inhibition of NaV1.7 currents, IonWorks Quattro planar array electrophysiology; type: cell-based; conditions: for pUD15 against NaV1.7: use-dependent, concentration producing 15% inhibition, 10th versus 1st depolarizing pulse, 10 Hz; for use-dependent potency against NaV1.7: result in words
hNaV1.3 channels = biological target: T1, hNaV1.3 channels (Homo sapiens, UniProt Q9NY46); experiment: Use-dependent inhibition of NaV1.3 currents, IonWorks Quattro planar array electrophysiology; type: cell-based; conditions: for pUD15 against NaV1.3: use-dependent, concentration producing 15% inhibition, 10th versus 1st depolarizing pulse, 10 Hz
T1 construct: expressed in transfected cells

Row | Structure (SMILES) | pUD15 against NaV1.7 (NaV 1.7) | pUD15 against NaV1.3 (hNaV1.3 channels) | use-dependent potency against NaV1.7 (NaV 1.7) | use-dependent potency against NaV1.3 (hNaV1.3 channels; result in words)
1 | CCN(Cc1cccc(Oc2ccc(Cl)cc2)c1)[C@@H]1CCN(c2ncccc2C(=O)OC(C)C)C1 [Example 56] | 4-4.99 | 4-4.99 | – | –
2 | CCCCCCOc1ccc(CN(CC)[C@@H]2CCN(c3ncccc3C(=O)OC(C)C)C2)cc1 [Example 62] | 5-5.99 | 4-4.99 | – | –
3 | CCN(Cc1ccc(OCc2ccc(F)cc2)cc1)[C@@H]1CCN(c2ncccc2C(=O)OC(C)C)C1 [Example 63] | 5-5.99 | 5-5.99 | – | –
4 | CCc1ccc(-c2ccc(CN(CC)[C@@H]3CCN(c4ncccc4C(=O)OC(C)C)C3)cc2)cc1 [Example 65] | 4-4.99 | 4-4.99 | – | –
5 | CCN(Cc1ccccc1-c1ccc(F)cc1)[C@@H]1CCN(c2ncccc2C(=O)OC(C)C)C1 [Example 71] | 4-4.99 | 5-5.99 | – | –
6 | CC(C)OC(=O)c1cccnc1N1CCN(Cc2cccc(OCc3c(Cl)cccc3Cl)c2)CC1 [Example 75] | 4-4.99 | 5-5.99 | – | –
7 | Cc1ccc(COc2cccc(CN3CCN(c4ncccc4C(=O)OC(C)C)CC3)c2)cc1 [Example 79] | 4-4.99 | 5-5.99 | – | –
8 | CC(C)OC(=O)c1cccnc1N1CCN(Cc2cccc(OCc3c(F)cccc3Cl)c2)CC1 [Example 87] | 4-4.99 | 5-5.99 | – | –
9 | CC(C)OC(=O)c1cccnc1N1CCN(Cc2cccc(OC(F)(F)C(F)F)c2)CC1 [Example 89] | 4-4.99 | 5-5.99 | – | –
10 | CC(C)OC(=O)c1cccnc1N1CCN(Cc2cccc(OCc3ccc(Cl)cc3)c2)CC1 [Example 97] | 4-4.99 | 5-5.99 | – | –
11 | CC(C)OC(=O)c1c(Nc2ccccc2F)ccnc1N1CCN(Cc2ccccc2)CC1 [Example 99, 1-methylethyl4-[(2-fluorophenyl)amino]-2-[4-(phenylmethyl)-1-piperazinyl]-3-pyridinecarboxylate] | 4-4.99 | 4-4.99 | – | –
12 | CC(C)OC(=O)c1c(Nc2cccc(Cl)c2)ccnc1N1CCN(Cc2ccccc2)CC1 [Example 100] | 4-4.99 | 4-4.99 | – | –
13 | CC(C)OC(=O)c1c(Nc2ccc(C#N)cc2)ccnc1N1CCN(Cc2ccccc2)CC1 [Example 101] | 4-4.99 | 4-4.99 | – | –
14 | CCOc1ccccc1Nc1ccnc(N2CCN(Cc3ccccc3)CC2)c1C(=O)OC(C)C [Example 102] | 4-4.99 | 4-4.99 | – | –
15 | CC(C)OC(=O)c1c(Nc2ccc(C(C)C)cc2)ccnc1N1CCN(Cc2ccccc2)CC1 [Example 103] | 5-5.99 | 4-4.99 | – | –
16 | CCOC(=O)c1cccc(Nc2ccnc(N3CCN(Cc4ccccc4)CC3)c2C(=O)OC(C)C)c1 [Example 105] | 5-5.99 | 5-5.99 | – | –
17 | COc1ccc(Nc2ccnc(N3CCN(Cc4ccccc4)CC3)c2C(=O)OC(C)C)cc1 [Example 107] | 4-4.99 | 4-4.99 | – | –
18 | CC(C)OC(=O)c1c(Nc2ccccc2)ccnc1N1CCN(Cc2ccccc2)CC1 [Example 108] | 4-4.99 | 4-4.99 | – | –
19 | CC(C)OC(=O)c1c(Sc2ccccc2)ccnc1N1CCN(Cc2ccccc2)CC1 [Example 109, 1-methylethyl 2-[4-(phenylmethyl)-1-piperazinyl]-4-(phenylthio)-3-pyridinecarboxylate] | 4-4.99 | 4-4.99 | – | –
20 | COc1ccccc1Sc1ccnc(N2CCN(Cc3ccccc3)CC2)c1C(=O)OC(C)C [Example 110, 1-methylethyl 4-{[2-(methyloxy)phenyl]thio}-2-[4-(phenylmethyl)-1-piperazinyl]-3-pyridine carboxylate] | 4-4.99 | 4-4.99 | – | –

Row | Structure (SMILES) | pUD15 against NaV1.7 (NaV 1.7) | pUD15 against NaV1.3 (hNaV1.3 channels) | use-dependent potency against NaV1.7 (NaV 1.7) | use-dependent potency against NaV1.3 (hNaV1.3 channels; result in words)
21 | CC(C)OC(=O)c1cccnc1N1CCN(Cc2ccc(Nc3c(F)cccc3C(F)(F)F)cc2)CC1 [Example 120] | 5-5.99 | 5-5.99 | – | –
22 | CC(C)OC(=O)c1cccnc1N1CCN(Cc2ccc(Nc3c(F)cccc3F)cc2)CC1 [Example 121] | 4-4.99 | 5-5.99 | – | –
23 | COc1ccc(Nc2ccc(CN3CCN(c4ncccc4C(=O)OC(C)C)CC3)cc2)cc1 [Example 124] | 4-4.99 | 4-4.99 | – | –
24 | Cc1ccc(CN2CCN(c3nccc(-c4ccccc4)c3C(=O)OC(C)C)CC2)s1 [Example 129] | 5-5.99 | 4-4.99 | – | –
25 | CC(C)OC(=O)c1c(-c2ccccc2)ccnc1N1CCN(Cc2cccc(Oc3ccccc3)c2)CC1 [Example 130] | 4-4.99 | 5-5.99 | – | –
26 | CC(C)OC(=O)c1c(-c2ccccc2)ccnc1N1CCN(Cc2ccc(OCc3ccccc3)cc2)CC1 [Example 131] | – | – | inactive | inactive
27 | COC(=O)c1ccc(CN2CCN(c3nccc(-c4ccccc4)c3C(=O)OC(C)C)CC2)cc1 [Example 133] | 4-4.99 | 4-4.99 | – | –
28 | COc1ccc(CN2CCN(c3nccc(-c4ccccc4)c3C(=O)OC(C)C)CC2)cc1 [Example 135] | 4-4.99 | 5-5.99 | – | –
29 | CCCOc1ccc(CN2CCN(c3nccc(-c4ccccc4)c3C(=O)OC(C)C)CC2)cc1 [Example 138] | 4-4.99 | 5-5.99 | – | –
30 | COc1ccc(CN2CCN(c3nccc(-c4ccccc4)c3C(=O)OC(C)C)CC2)cc1OCc1ccccc1 [Example 141] | 5-5.99 | 5-5.99 | – | –
31 | Cc1c(F)cccc1CN1CCN(c2nccc(-c3ccccc3)c2C(=O)OC(C)C)CC1 [Example 143] | 4-4.99 | 4-4.99 | – | –
32 | CCc1ccc(CN2CCN(c3nccc(-c4ccccc4)c3C(=O)OC(C)C)CC2)s1 [Example 145] | 4-4.99 | 4-4.99 | – | –
33 | CC(C)OC(=O)c1c(-c2ccccc2)ccnc1N1CCN(Cc2cccc(OCc3ccccc3Cl)c2)CC1 [Example 146] | – | 4-4.99 | inactive | –
34 | CCOc1ccccc1CN(CC)[C@@H]1CCN(c2nccc(-c3ccccc3)c2C(=O)OC(C)C)C1 [Example 149] | 5-5.99 | 5-5.99 | – | –
35 | CCN(Cc1cccc(OC)c1)[C@@H]1CCN(c2nccc(-c3ccccc3)c2C(=O)OC(C)C)C1 [Example 151] | 5-5.99 | 5-5.99 | – | –
36 | CCOc1cccc(CN(CC)[C@@H]2CCN(c3nccc(-c4ccccc4)c3C(=O)OC(C)C)C2)c1 [Example 168] | 4-4.99 | 4-4.99 | – | –
37 | CCN(Cc1ccc(Oc2ccc(F)cc2)cc1)[C@H]1CCN(c2ncccc2C(=O)OC(C)C)C1 [Example 170] | 4-4.99 | 4-4.99 | – | –
38 | CCN(Cc1ccc(OCc2c(F)cccc2Cl)c(OC)c1)[C@H]1CCN(c2ncccc2C(=O)OC(C)C)C1 [Example 171] | 5-5.99 | 5-5.99 | – | –
39 | CCN(Cc1ccc(OCc2ccccc2)cc1)[C@H]1CCN(c2ncccc2C(=O)OC(C)C)C1 [Example 174] | 5-5.99 | 5-5.99 | – | –
